By UniProt entry, the sequences of proteins in these tests, tags left out. Where a name states a change or a piece, a line headed by the entry shows the natural chain unless it says otherwise.
UniProt P03023, whole entry: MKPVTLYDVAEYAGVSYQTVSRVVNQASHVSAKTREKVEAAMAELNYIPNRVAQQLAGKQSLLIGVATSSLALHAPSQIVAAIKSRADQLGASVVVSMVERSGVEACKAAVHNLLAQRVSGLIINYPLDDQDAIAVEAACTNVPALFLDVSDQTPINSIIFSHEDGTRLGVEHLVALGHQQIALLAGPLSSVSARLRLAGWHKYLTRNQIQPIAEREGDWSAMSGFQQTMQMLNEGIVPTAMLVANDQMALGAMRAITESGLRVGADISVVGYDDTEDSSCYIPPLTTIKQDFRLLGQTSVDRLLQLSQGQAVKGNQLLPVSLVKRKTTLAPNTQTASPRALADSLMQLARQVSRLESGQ

According to article PMC3722110:

Tests used:
LacI W220F (LacIWF) = LacI W220F (LacIWF) (UniProt P03023); assay: differential scanning fluorimetry (thermal shift); details: 2.5 uM operator DNA, apo Tm 49.1±0.1 °C, protein storage buffer 200 mM Tris-HCl, 200 mM KCl, 10 mM EDTA, 3 mM DTT, pH 7.4, thermal melt, recombinant protein, protein details: C-terminal His6
LacI WT = LacI WT (UniProt P03023); assay: differential scanning fluorimetry (thermal shift); details: 2.5 uM operator DNA, apo Tm 52.4±0.3 °C, protein storage buffer 200 mM Tris-HCl, 200 mM KCl, 10 mM EDTA, 3 mM DTT, pH 7.4, thermal melt, recombinant protein, protein details: C-terminal His6

Work on “TGTTGTGTGGAATTGTGAGCGGATAACAATTTCACACAG (double strand) [lac operator DNA (LacO1f/LacO1r)]” yielded a binding signal (°C (Tm increase)) (LacI W220F (LacIWF)) of 12.8 and a binding signal (°C (Tm increase)) (LacI WT) of 7.7.

The exact form of at least one protein or probe is not confirmed. Whether high values mean tight binding is not given here for every scale.
